These are yes or no findings as the source states them, for the method shown. Binding seen in cells or lysates may run through a third protein. Some results given as binding are weak or reduced against the parent protein; the word gives no strength. Sequences can lack the tags named with a protein.
Molecular target: T1, His-tagged AHRR expressed in 293T cells (UniProt A9YTQ3)
T1 sequence: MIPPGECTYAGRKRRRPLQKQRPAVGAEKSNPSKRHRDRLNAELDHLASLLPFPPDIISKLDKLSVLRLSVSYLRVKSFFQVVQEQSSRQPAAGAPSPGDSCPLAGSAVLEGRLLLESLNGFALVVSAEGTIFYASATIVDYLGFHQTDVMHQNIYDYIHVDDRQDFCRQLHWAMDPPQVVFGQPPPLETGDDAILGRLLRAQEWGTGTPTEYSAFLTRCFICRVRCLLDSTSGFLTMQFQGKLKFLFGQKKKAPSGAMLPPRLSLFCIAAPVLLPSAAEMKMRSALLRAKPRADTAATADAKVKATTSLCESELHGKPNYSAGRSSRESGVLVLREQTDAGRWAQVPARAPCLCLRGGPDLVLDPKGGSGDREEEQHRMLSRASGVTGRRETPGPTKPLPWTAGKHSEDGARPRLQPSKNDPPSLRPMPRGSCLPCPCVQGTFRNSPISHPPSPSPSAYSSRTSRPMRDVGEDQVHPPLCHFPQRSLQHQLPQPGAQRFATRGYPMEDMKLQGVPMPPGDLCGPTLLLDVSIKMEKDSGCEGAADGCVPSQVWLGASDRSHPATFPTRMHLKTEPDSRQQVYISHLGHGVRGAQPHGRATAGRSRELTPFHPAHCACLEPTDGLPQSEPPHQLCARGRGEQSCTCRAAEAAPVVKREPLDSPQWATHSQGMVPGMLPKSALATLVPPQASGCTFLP
Experiment: co-IP; 293T cells transfected with LIMR and His-tagged AHRR, with or without LINC00305; precipitated with anti-His antibody or normal rabbit IgG, blotted with anti-His and anti-LIMR

binding: binds
B1: LIMR expressed in 293T cells (receptor, UniProt Q6UX01 1-489)
chain: MEAPDYEVLSVREQLFHERIRECIISTLLFATLYILCHIFLTRFKKPAEFTTVDDEDATVNKIALELCTFTLAIALGAVLLLPFSIISNEVLLSLPRNYYIQWLNGSLIHGLWNLVFLFSNLSLIFLMPFAYFFTESEGFAGSRKGVLGRVYETVVMLMLLTLLVLGMVWVASAIVDKNKANRESLYDFWEYYLPYLYSCISFLGVLLLLVCTPLGLARMFSVTGKLLVKPRLLEDLEEQLYCSAFEEAALTRRICNPTSCWLPLDMELLHRQVLALQTQRVLLEKRRKASAWQRNLGYPLAMLCLLVLTGLSVLIVAIHILELLIDEAAMPRGMQGTSLGQVSFSKLGSFGAVIQVVLIFYLMVSSVVGFYSSPLFRSLRPRWHDTAMTQIIGNCVCLLVLSSALPVFSRTLGLTRFDLLGDFGRFNWLGNFYIVFLYNAAFAGLTTLCLVKTFTAAVRAELIRAFGLDRLPLPVSGFPQASRKTQHQ
